According to patent publication US10022356B2, “Compounds for treatment of cancer” (UNIVERSITY OF TENNESSEE RESEARCH FOUNDATION, priority 2013, dated 2018):
For at least one compound, name, drawing or mass did not settle the structure.

Test system: Bovine brain tubulin
Experiment: HTS-tubulin polymerization assay (Example 1)
Details: vemurafenib 20 μM

SMILES: CCCS(=O)(=O)Nc1ccc(F)c(C(=O)c2c[nH]c3ncc(-c4ccc(Cl)cc4)cc23)c1F [Vemurafenib, reference compound]
- effect on tubulin polymerization: did not significantly influence tubulin polymerization
- effect on tubulin polymerization (listed as vemurafenib): did not have any effect on tubulin polymerization
